Test results published in the supplement of paper PMC12067093, “Discovery and optimisation of a covalent ligand for TRIM25 and its application to targeted protein ubiquitination” (Chemical Science, 2025).
This is one part of the list.

Compound: CC1Cc2ccccc2N1C(=O)C1CCCN(C1)C(=O)CCl (mixture of isomers) [TRIM25 ligand 11 (diastereomer mixture)]
Assay: probe-labelled cysteine peptide fold change vs DMSO (competition) (log2 fold change); higher = less target engagement (more negative = stronger competition)
Details: THP-1, incubation time: 4 h
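Also: competitive chemoproteomic profiling in live THP-1 cells with an iodoacetamide desthiobiotin (IA-DTB) probe, comparing probe-labelled peptide intensities in compound-treated cells against DMSO-treated controls.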

Row | Target | probe-labelled cysteine peptide fold change (10 µM) | probe-labelled cysteine peptide fold change (50 µM)
1 | RAB20_Q9NX57_179_MLDEQDVPAAEQMCFETSAK (UniProt Q9NX57) | -0.154 | -0.351
2 | RABEPK_Q7Z6M1_36_VGHSCSYLPPVGNAK (UniProt Q7Z6M1) | -0.135 | -0.0563
3 | RAB11FIP5_Q9BXF6_337_SSLCVNGSHIYNEEPQGPVR (UniProt Q9BXF6) | -0.00352 | -0.406
4 | QARS_P47897_687_AFIHWVSQPLMCEVR (UniProt P47897) | -0.0924 | -0.0962
5 | QSOX1_O00391_101+110_AWRPALYLAALDCAEETNSAVCR (UniProt O00391) | 0.0972 | -0.0278
6 | RABGEF1_Q9UJ41_359_RDLSIEEQSECAQDFYHNVAER (UniProt Q9UJ41) | 0.648 | -0.0585
7 | PYCR3_Q53H96_49_NLCHFQALGCR (UniProt Q53H96) | -0.0532 | -0.0742
8 | UniProt Q6ZSR9_Q6ZSR9_251_GSCLESGGHSNDR | 0.0287 | -0.245
9 | RAB3GAP2_Q9H2M9_896_QLEDCLILQTLLHSK (UniProt Q9H2M9) | 0.108 | -0.0281
10 | PYCR1_P32322_120_CMTNTPVVVR (UniProt P32322) | 0.0536 | 0.0496
11 | RACGAP1_Q9H0H5_93_QRAEADCEK (UniProt Q9H0H5) | 0.109 | 0.249
12 | RAB35_Q15286_110+114_WLHEINQNCDDVCR (UniProt Q15286) | 0.171 | 0.198
13 | PURA_Q00577_272_FGHTFCK (UniProt Q00577) | -0.114 | -0.0787
14 | R3HCC1L_Q7Z5L2_147_KVECLEVETTDVTGHER (UniProt Q7Z5L2) | -0.141 | 0.168
15 | RAD51B_O15315_32_HQILTCQDFLCLSPLELMK (UniProt O15315) | -0.0981 | -0.12
16 | RABEPK_Q7Z6M1_222_FYDDLHCIDISDMK (UniProt Q7Z6M1) | 0.0323 | 0.12
17 | PXN_P49023_523_ECFTPFVNGSFFEHDGQPYCEVHYHER (UniProt P49023) | 0.0258 | 0.0357
18 | RAB33A_Q14088_135_MWIQECNGHAVPPLVPK (UniProt Q14088) | -0.0486 | 0.0099
19 | RAB21_Q9UL25_128_MLGNEICLCIVGNK (UniProt Q9UL25) | -0.0497 | 0.137
20 | RAC1_P63000_105_HHCPNTPIILVGTK (UniProt P63000) | -0.0211 | -0.12
21 | RAD50_Q92878_1296_NIDQCSEIVK (UniProt Q92878) | -0.117 | -0.0187

Row | Target | probe-labelled cysteine peptide fold change (10 µM) | probe-labelled cysteine peptide fold change (50 µM)
22 | RAB8B_Q92930_123_CDMNDK (UniProt Q92930) | 0.145 | -0.0101
23 | RAB7A_P51149_83+84_GADCCVLVFDVTAPNTFK (UniProt P51149) | 0.123 | -0.0351
24 | RAB3GAP2_Q9H2M9_395_HGESICLSPCNTLAAVTDDFGR (UniProt Q9H2M9) | 0.106 | -0.00717
25 | QKI_Q96PU8_35_LMSSLPNFCGIFNHLER (UniProt Q96PU8) | -0.055 | 0.0375
26 | RABGGTA_Q92696_457_DLTVLCHLEQLLLVTHLDLSHNR (UniProt Q92696) | 0.188 | 0.151
27 | QTRT2_Q9H974_174_SLLFLDNCLR (UniProt Q9H974) | -0.0933 | 0.16
28 | RAB11FIP1_Q6WKZ4_1028_LVLGEGLCDFR (UniProt Q6WKZ4) | -0.216 | -0.316
29 | RABGAP1_Q9Y3P9_346_CFGLLLSPGK (UniProt Q9Y3P9) | -0.13 | -0.0597
30 | QARS_P47897_433_WCIYPTYDYTHCLCDSIEHITHSLCTK (UniProt P47897) | 0.0677 | -0.0868
31 | QTRT1_Q9BXR0_319_DFGPIDPECTCPTCQK (UniProt Q9BXR0) | 0.000815 | -0.244
32 | RAB3GAP2_Q9H2M9_792+793_DILDKPQSICCLHTMLSLLSK (UniProt Q9H2M9) | 0.000932 | -0.0923
33 | RAB44_Q7Z6P3_950_MDCEEER (UniProt Q7Z6P3) | 0.176 | 0.106
34 | QSOX1_O00391_165_LIDALESHHDTWPPACPPLEPAKLEEIDGFFAR (UniProt O00391) | 0.157 | -0.0652
35 | RAB21_Q9UL25_177_GIEELFLDLCK (UniProt Q9UL25) | 0.0968 | 0.0672
36 | RAB36_O95755_247_DLLSGAACEQAEADAVHLAR (UniProt O95755) | -0.392 | 0.0759
37 | QRICH1_Q2TAL8_713_CPQSVK (UniProt Q2TAL8) | -0.091 | -0.106
38 | RABGAP1L_Q5R372_330_CFGMLLSPGR (UniProt Q5R372) | -0.0577 | 0.23
39 | RAB3D_O95716_137_TYSWDNAQVILVGNKCDLEDER (UniProt O95716) | -0.197 | -0.381
40 | PXN_P49023_361_GVCGACK (UniProt P49023) | 0.0145 | 0.211
41 | RAB3IL1_Q8TBN0_97_LKDEECER (UniProt Q8TBN0) | -0.0448 | -0.0486
42 | R3HCC1_Q9Y3T6_94_VPSSDGLSGPCR (UniProt Q9Y3T6+R3HCC1) | -0.0332 | 0.125

Row | Target | probe-labelled cysteine peptide fold change (10 µM) | probe-labelled cysteine peptide fold change (50 µM)
43 | QTRT1_Q9BXR0_23_LVAECSR (UniProt Q9BXR0) | -0.103 | -0.0782
44 | RAD21_O60216_35_AHVFECNLESSVESIISPK (UniProt O60216) | 0.0257 | 0.111
45 | QTRT2_Q9H974_312_CMDQIK (UniProt Q9H974) | -0.0399 | -0.112
46 | PUS7L_Q9H0K6_561_VVQGDLVCLDEDIDDENFPNSK (UniProt Q9H0K6) | 0.133 | 0.0488
47 | PYURF_Q96I23_60_KTEEPPRDFDPALLEFLVCPLSK (UniProt Q96I23) | -0.332 | -0.352
48 | R3HCC1L_Q7Z5L2_665_VFCSYQK (UniProt Q7Z5L2) | -0.0725 | 0.147
49 | R3HCC1_Q9Y3T6_362_IQWVDDTHALGIFPCLASAAEALTR (UniProt Q9Y3T6+R3HCC1) | -0.309 | -0.204
50 | RACK1_P63244_240_HLYTLDGGDIINALCFSPNR (UniProt P63244) | 0.0157 | 0.0697
51 | RABGGTA_Q92696_371_STVLQSELESCK (UniProt Q92696) | 0.0349 | 0.00927
52 | RAB3GAP1_Q15042_858_CEQEEEK (UniProt Q15042) | 0.188 | 0.0514
53 | RABGGTA_Q92696_132_ELELCAR (UniProt Q92696) | 0.147 | 0.122
54 | RAB3D_O95716_137_CDLEDERVVPAEDGRR (UniProt O95716) | -0.117 | 0.0593
55 | PWP2_Q15269_60_CVGLSPDGR (UniProt Q15269) | 0.0189 | 0.0846
56 | QSER1_Q2KHR3_1188_TFCPPPLPK (UniProt Q2KHR3) | 0.0851 | 0.215
57 | RAB14_P61106_26_SCLLHQFTEKK (UniProt P61106) | -0.449 | -0.303
58 | RAB10_P61026_124_CDMDDK (UniProt P61026) | -0.0218 | -0.142
59 | RAD1_O60671_215_DSDLMEAFHCNQTQVNR (UniProt O60671) | 0.0173 | 0.0642
60 | R3HCC1_Q9Y3T6_5_ALLCLDGVFLSSAENDFVHR (UniProt Q9Y3T6+R3HCC1) | -0.132 | 0.00353
61 | QKI_Q96PU8_119_QLEAETGCK (UniProt Q96PU8) | -0.0587 | 0.00781
62 | RABGGTA_Q92696_145_NFHCWDYR (UniProt Q92696) | 0.176 | 0.0301
63 | PYGL_P06737_581_QLLNCLHVITMYNR (UniProt P06737) | 0.0137 | 0.135

Row | Target | probe-labelled cysteine peptide fold change (10 µM) | probe-labelled cysteine peptide fold change (50 µM)
64 | RABGGTA_Q92696_186_SCLLPQLHPQPDSGPQGR (UniProt Q92696) | 0.0398 | -0.112
65 | QTRT1_Q9BXR0_70_ICLGNTYHLGLRPGPELIQK (UniProt Q9BXR0) | -0.0515 | 0.0556
66 | RAB9B_Q9NP90_182_QVLAVEEQLEHCMLGHTIDLNSGSK (UniProt Q9NP90) | -0.018 | -0.054
67 | RABEPK_Q7Z6M1_29_ATWYTLTVPGDSPCAR (UniProt Q7Z6M1) | 0.0173 | -0.17
68 | PUS7L_Q9H0K6_15_FSSLCFFNDHVGFHGTIK (UniProt Q9H0K6) | 0.0462 | 0.114
69 | RAB14_P61106_40_KFMADCPHTIGVEFGTR (UniProt P61106) | -0.029 | -0.0399
70 | QDPR_P09417_85_VDAILCVAGGWAGGNAK (UniProt P09417) | 0.0559 | -0.0321
71 | RAB11FIP1_Q6WKZ4_711_NTSSLELEESLPEQPETGRQEEELPRFPCK (UniProt Q6WKZ4) | -0.158 | -0.236
72 | R3HDM4_Q96D70_29_LLPLPSCLPALASSQVK (UniProt Q96D70) | 0.0386 | -0.181
73 | RABGGTA_Q92696_487_CLEVLQASDNAIESLDGVTNLPR (UniProt Q92696) | -0.113 | 0.00806
74 | RAC3_P60763_105_HHCPHTPILLVGTK (UniProt P60763) | -0.00887 | 0.0468
75 | PXK_Q7Z7A4_112_GLQNYLNVITTNHILSNCELVKK (UniProt Q7Z7A4) | -0.189 | -0.0262
76 | PUS7_Q96PZ0_319_CLMNFK (UniProt Q96PZ0) | -0.123 | 0.0529
77 | RABGAP1_Q9Y3P9_1026_LQLVEAECK (UniProt Q9Y3P9) | 0.132 | 0.135
78 | QSOX1_O00391_110_AWRPALYLAALDCAEETNSAVCR (UniProt O00391) | -0.00148 | 0.238
79 | RABEP2_Q9H5N1_372_CLHHEVK (UniProt Q9H5N1) | -0.0845 | -0.144
80 | PXN_P49023_384+387_TWHPEHFVCTHCQEEIGSR (UniProt P49023) | 0.000376 | -0.00391
81 | RAD50_Q92878_157_AVLNNVIFCHQEDSNWPLSEGK (UniProt Q92878) | -0.0153 | 0.196
82 | PWP2_Q15269_508_LLDVLSGHEGPISGLCFNPMK (UniProt Q15269) | 0.11 | 0.0145
83 | RAB29_O14966_120_LTLPNGEPVPCLLLANK (UniProt O14966) | -0.0261 | 0.0593
84 | RABEP1_Q15276_350_IPVVCALTQEESSAQLSNEEEHLDSTR (UniProt Q15276) | -0.0072 | -0.0899
